Results: PubChem BioAssay AID200 (DTP/NCI, 2004)
The list shows only some results of the screen, not a fair sample: it is rich in T/C values a quarter to a half above the control, in often repeated tests (any T/C) and in doses without a T/C. Further doses and runs are listed elsewhere. T/C is the treated group as % of the vehicle group. Some entries give survivors of the animals treated and no T/C: the source files T/C as zero there, which appears to mark a toxic dose or a test without result, not a measured value. Some survivor counts are full or nearly so, which does not show that the dose was tolerated: survival well below the control is almost never listed, so the zero probably covers shortened survival too. Survivors were counted at the toxicity check, usually on the fifth day, unless a day is given; later deaths do not show. Schedules are NCI's codes, read here as Q, the interval in days (D) or hours (H), X, the number of doses. Some entries were tested several times; their values stand side by side, smallest first. For survival time, the PubChem record calls one and a half times the control and up active, and a quarter to a half above the control has no call in these data; cut-offs in other NCI protocols can differ. Some T/C values carry the count of animals alive at the toxicity check (mostly the fifth day); without a count, all were alive then. Where a SMILES comes first, the peptide text is derived from it. [ ]: non-standard residue; d: D form. Tyr(3,5-I2) = N[CH](Cc1cc(I)c(O)c(I)c1)C(=O)O

Tested on: B6C3F1 mice, B16 melanoma ip, median survival T/C
Test: NCI In Vivo Anticancer Drug Screen. Data for tumor model B16 Melanoma (intraperitoneal) in B6C3F1 mice
Details: T/C endpoint: median survival time, schedule: Q01DX009 (ip), higher T/C = longer survival
Protocol: The antitumor activity of compounds was measured in mice bearing transplantable tumors. Survival or tumor size were measured and the results are expressed as the measurement made in the treated group (T) divided by the measurement made in the vehicle treated control group (C). The tumor model used in this assay is B16 Melanoma (intraperitoneal) in B6C3F1 mice

[1] = dose: 4.0 mg/kg/injection, vehicle: saline + alcohol

## CC1(C)N=C(N)N=C(N)N1c1cccc(CCCCc2cccc(N)c2)c1
dose: 50.0 mg/kg/injection, vehicle: Klucel (hydroxypropylcellulose) (HPC)
  survivor count: 0 of 10

## CC(=O)NC(Cc1ccccc1)C(=O)NC(Cc1cc(I)c(O)c(I)c1)C(=O)O (configuration not stated) (Ac-Phe-[Tyr(3,5-I2)]-OH; configuration not given here)
dose: 100.0 mg/kg/injection, vehicle: Klucel (hydroxypropylcellulose) (HPC)
  survivor count: 10 of 10
dose: 200.0 mg/kg/injection, vehicle: Klucel (hydroxypropylcellulose) (HPC)
  survivor count: 9 of 10

## COC(=O)C12OCC34C(CC5C(C)=CC(=O)C(O)C5(C)C3C(O)C1O)OC(=O)C(OC(=O)CC(C)C)C24 (configuration not stated)
dose: 0.25 mg/kg/injection, vehicle: saline + alcohol
  T/C: 125 % of control
dose: 0.5 mg/kg/injection, vehicle: saline + alcohol
  T/C: 130 % of control
dose: 1.0 mg/kg/injection, vehicle: saline + alcohol
  T/C: 142 % of control
dose: 2.0 mg/kg/injection, vehicle: saline + alcohol
  survivor count: 6 of 9
[1]
  T/C: 136 % of control [8 of 10 alive]
  survivor count: 0 of 9

## COc1cc2cc(c1Cl)N1CC(=O)C(C)(O)C(=O)N(C)C(C)C(=O)OC(CC1=O)C1(C)OC1C(C)C1CC(O)(NC(=O)O1)C(OC)/C=C\C=C(\C)C2OC (configuration not stated)
dose: 32.0 micrograms/kg/injection, vehicle: distilled water + alcohol
  survivor count: 10 of 10
dose: 64.0 micrograms/kg/injection, vehicle: distilled water + alcohol
  survivor count: 9 of 10
dose: 128.0 micrograms/kg/injection, vehicle: distilled water + alcohol
  survivor count: 3 of 10

## Cc1ccc(S(=O)(=O)OCCN(CCOS(=O)(=O)c2ccc(C)cc2)c2ccc(F)cc2)cc1
dose: 100.0 mg/kg/injection, vehicle: saline + alcohol
  T/C: 127 % of control

## O=C(c1cccnc1)c1cc(-c2ccccn2)c(=O)n2ccccc12
dose: 200.0 mg/kg/injection, vehicle: saline with Tween-80
  survivor count: 10 of 10
dose: 400.0 mg/kg/injection, vehicle: saline with Tween-80
  survivor count: 9 of 10

## C/C(=N\N=C(/[Se])N1CC2CCC(CC2)C1)c1ccccn1
dose: 1.5 mg/kg/injection, vehicle: Klucel (hydroxypropylcellulose) (HPC)
  T/C: 125 % of control
dose: 3.0 mg/kg/injection, vehicle: Klucel (hydroxypropylcellulose) (HPC)
  T/C: 126 % of control
dose: 12.0 mg/kg/injection, vehicle: Klucel (hydroxypropylcellulose) (HPC)
  survivor count: 9 of 10 and 10 of 10
dose: 25.0 mg/kg/injection, vehicle: Klucel (hydroxypropylcellulose) (HPC)
  survivor count: 3 of 10

## O=C(O)C(CSC(c1ccccc1)(c1ccccc1)c1ccccc1)N=Cc1cccs1 (configuration not stated)
dose: 50.0 mg/kg/injection, vehicle: suspension in saline
  T/C: 127 % of control
dose: 100.0 mg/kg/injection, vehicle: suspension in saline
  survivor count: 8 of 10
dose: 200.0 mg/kg/injection, vehicle: suspension in saline
  survivor count: 6 of 10
dose: 400.0 mg/kg/injection, vehicle: suspension in saline
  survivor count: 0 of 10

## O=C1c2ccccc2CCC1Cl (configuration not stated)
dose: 0.18 mg/kg/injection, vehicle: DMSO
  survivor count: 10 of 10
dose: 0.37 mg/kg/injection, vehicle: DMSO
  survivor count: 9 of 9
dose: 0.75 mg/kg/injection, vehicle: DMSO
  survivor count: 10 of 10
dose: 1.5 mg/kg/injection, vehicle: DMSO
  survivor count: 8 of 10
dose: 6.0 mg/kg/injection, vehicle: DMSO
  survivor count: 10 of 10
dose: 12.0 mg/kg/injection, vehicle: DMSO
  survivor count: 8 of 10
dose: 25.0 mg/kg/injection, vehicle: DMSO
  survivor count: 7 of 7
dose: 50.0 mg/kg/injection, vehicle: DMSO
  survivor count: 7 of 7
dose: 100.0 mg/kg/injection, vehicle: DMSO
  survivor count: 4 of 7
